PubChem BioAssay AID602196, INSERM, 2012

Test: 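Genes whose knock-down alters cisplatin killing of lung cancer cells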
System: human A549 lung cancer cells
Reagents: siRNA pair against human genes
Duration: 48 h transfection before cisplatin; time from cisplatin to read-out not stated
Treatment: cisplatin at a dose killing half of control-siRNA cells; exact dose and duration not given
Measured: 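Shift in cisplatin death relative to control siRNA, from -50 (all cells die) to +50 (no cells die); siRNAs harmful on their own scored 0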
Reading the numbers: two-siRNA summed score (-2 to +2): higher = both siRNAs protect from cisplatin killing; -2 means both sensitise; mean protection from cisplatin (shift in death) and protection from cisplatin (shift in death), siRNA C and protection from cisplatin (shift in death), siRNA D: higher = protection from cisplatin killing
Rule for the call: 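siRNAs harmful alone (LDH or WST-1) get 0; others get +1 for less and -1 for more cisplatin killing; genes are active when the two siRNAs give the same sign, summing to ±2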
Calls: active = both siRNAs shift cisplatin killing the same way; inactive = no consistent shift, or siRNA harmful alone
The deposit covers about 23,000 reagents; shown is a random part of them. Of all reagents, 455 (2%) are marked active. 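Active includes both protection and sensitisation; some change values fall well beyond the stated -50 to +50 range.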 Unmarked entries are inactive. Not stated in the record: the amount of reagent.

| gene | two-siRNA summed score (-2 to +2) | mean protection from cisplatin (shift in death) (%) | protection from cisplatin (shift in death), siRNA C (%) | protection from cisplatin (shift in death), siRNA D (%) |
| --- | --- | --- | --- | --- |
| IQUB | 0 | -3.9 | -6.8 | -1 |
| OR10A5 | 0 | -4.5 | -6.6 | -2.4 |
| FLJ35036 | 0 | 11.6 | 10.9 | 12.3 |
| TSPAN33 | 1 | 15.7 | 32.1 | -0.8 |
| TAF15 | 0 | 8.8 | 12.1 | 5.4 |
| CYP2W1 | 0 | 6 | 22 | -10 |
| GFOD3P | 1 | 10.6 | 15.6 | 5.6 |
| LOC440374 | 1 | 12.5 | 15.4 | 9.5 |
| MLXIPL | 2 (active) | 25.8 | 27.4 | 24.3 |
| EIF4A2P4 | 0 | 13.4 | 27.3 | -0.5 |
| POU4F2 | 0 | 10.8 | 6.9 | 14.6 |
| NEK4 | -1 | -10.8 | -15.5 | -6.1 |
| LOC440468 | 0 | 13 | 9.8 | 16.1 |
| PTTG1IP | 0 | 0.6 | -0.3 | 1.6 |
| PPP2R1B | -1 | -20.6 | -9.5 | -31.7 |
| LOC440284 | 0 | 10 | 2.9 | 17 |
| LOC390680 | 0 | 5.1 | -3.3 | 13.6 |
| SUPT20HL2 | 0 | -4.4 | -2.7 | -6 |
| KDM4D | 0 | 2.6 | 8.6 | -3.3 |
| SOHLH1 | 0 | 12.5 | 9 | 16 |
| EGFL6 | 0 | -8.5 | -14.1 | -3 |
| ZDHHC6 | 0 | -0.5 | 3.4 | -4.4 |
| LOC442084 | 1 | 19.7 | 17.1 | 22.4 |
| IGSF9B | 0 | 6.7 | 5.1 | 8.2 |
| SNHG17 | 0 | 11.9 | 18.7 | 5.1 |
| LOC442130 | 1 | 10.2 | 27.7 | -7.3 |
| RHBDL3 | -1 | -6.4 | -23.4 | 10.7 |
| AFTPH | -1 | -9.6 | -14.7 | -4.6 |
| PHETA2 | 1 | 10.9 | 18.6 | 3.1 |
| CHDH | 0 | -1.6 | -6.2 | 2.9 |
| ZIM3 | 0 | -3 | -7.8 | 1.9 |
| LINS1 | 0 | 6.1 | 11.4 | 0.8 |
| PDCL3 | 0 | 2.5 | -8.6 | 13.6 |
| MRPS34 | 0 | -4 | -2.1 | -6 |
| C1QB | 0 | -2.7 | 1 | -6.4 |
| IL17REL | 0 | 10.8 | 1.2 | 20.3 |
| CHD9 | 0 | -5.8 | -2.4 | -9.1 |
| IL24 | 0 | -10.5 | -7.5 | -13.5 |
| LINC00964 | 0 | 4.3 | 5.4 | 3.1 |
